From patent US20220281966A1
Changes are numbered by the printed parent chain. No constants are given. Whether binding was seen depends on the method and setting. Some entries that bind do so weakly or less than the wild type. Blank lines part the entries; values can stand above or below the binder they belong to.

Chains of the proteins cited; added tags and fusions are not shown. Lines headed by an entry give the natural chain unless they say otherwise; changes in a name come on top. Residues count along the entry.
UniProt P35225, residues 35-146: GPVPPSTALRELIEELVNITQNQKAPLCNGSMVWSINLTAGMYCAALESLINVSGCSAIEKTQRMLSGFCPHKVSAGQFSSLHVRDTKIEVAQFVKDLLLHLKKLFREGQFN

What was measured:
[1] = target: IL-13 (human IL-13, preparation not specified) (human) (UniProt P35225); assay: dot blot on IL-13 purified protein, non-reduced
[2] = target: IL-13 (human IL-13, preparation not specified) (human) (UniProt P35225); assay: ELISA on secreted IL-13
[3] = target: IL-13 (human IL-13, preparation not specified) (human) (UniProt P35225); assay: competition ELISA: antibody pre-incubated with soluble IL-13, then put on plates coated with IL-13RbFc
[4] = target: Human IL-13-Mouse IL-13 Helix B chimera (human with mouse Helix B) (UniProt P35225); assay: ELISA on secreted chimeric IL-13
[5] = target: Human IL-13-Mouse IL-13 Helix C chimera (human with mouse Helix C) (UniProt P35225); assay: ELISA on secreted chimeric IL-13
[6] = target: Human IL-13-Mouse IL-13 Helix D chimera (human with mouse Helix D); assay: ELISA on secreted chimeric IL-13
[7] = target: Human IL-13-Mouse IL-13 Helix A chimera (human with mouse Helix A) (UniProt P35225); assay: ELISA on secreted chimeric IL-13
693 phage = target: T1, 693 phage; assay: panning of a 12-mer random peptide phage display library on mAb 693
T1 sequence (peptide): YKIGEPHKDTYM

[8] = target: IL-13 (human IL-13, preparation not specified) (human) (UniProt P35225); assay: dot blot on IL-13 purified protein

B2: antibody 643 (antibody, V domains shown)
VH: EVQLVESGGGLVKPGGSLRLSCAASGFTFSNAWMSWVRQAPGKGLEWVGRIRSEIDGGTTNYAAPVKGRFTISRDDSKNTLYLQMNSLRTEDTAVYYCATDQVGAYYGDYYGMDVWGQGTLVTVSS
VL: SYELTQPPSVSVSPGQTARITCSGDALPEKYAYWYQQKSGQAPVLVIYEDSKRPSGIPERFSGSSSGTMATLTISGAQVEDEADYYCHSTDSSGNHGVFGGGTKLTVL
binding [1]: binds
binding [2]: binds
binding [4]: binds
binding [5]: binds
binding [6]: binds
binding [7]: binds

B4: antibody 693 (antibody, V domains shown)
VH: QVQLQESGPGLVKPSETLSLTCSVSGGSISSYYWSWIRQPAGKGLEWIGRIYMTGRTNYNSSLKSRVTMSIDTSKNQLSLKLSFMTAADTAVYYCARESGSSYSYDYWGQGTLVTVSS
VL: SYVLTQPPSVSVAPGQTARITCGGNNIGSKGVHWYQQKPGQAPVLVVYDDSDRPSGIPERFSGSNSGNTATLTISRVEAGDEADYYCQVWVSSSDHHVVFGGGTKLTVV
binding [2]: binds
binding [4]: binds
binding [5]: binds
binding [7]: binds
binding (693 phage): binds
binding [8]: binds

Now from value to binder:

binding [1]: binds
binding [2]: binds
binding [3]: binds
binding [4]: binds
binding [5]: binds
binding [6]: binds
binding [7]: binds
B1: antibody 623 (antibody, V domains shown)
VH: B2 VH with R89K
VL: B2 VL

binding [1]: binds
binding [2]: binds
binding [4]: binds
binding [5]: binds
binding [6]: binds
binding [7]: binds
B3: antibody 602 (antibody, V domains shown)
VH: B2 VH with E54K, T60I, R89K
VL: B2 VL with S51T, H88Y
